Measurements reported in publication PMC5756382.
These are yes or no findings as the source states them, for the method shown. Binding seen in cells or lysates may run through a third protein. Some binding calls cover weakened binding; strength is not graded here.

Sequences of proteins named here, by UniProt entry; tags and fusion partners are left off.
UniProt Q14247: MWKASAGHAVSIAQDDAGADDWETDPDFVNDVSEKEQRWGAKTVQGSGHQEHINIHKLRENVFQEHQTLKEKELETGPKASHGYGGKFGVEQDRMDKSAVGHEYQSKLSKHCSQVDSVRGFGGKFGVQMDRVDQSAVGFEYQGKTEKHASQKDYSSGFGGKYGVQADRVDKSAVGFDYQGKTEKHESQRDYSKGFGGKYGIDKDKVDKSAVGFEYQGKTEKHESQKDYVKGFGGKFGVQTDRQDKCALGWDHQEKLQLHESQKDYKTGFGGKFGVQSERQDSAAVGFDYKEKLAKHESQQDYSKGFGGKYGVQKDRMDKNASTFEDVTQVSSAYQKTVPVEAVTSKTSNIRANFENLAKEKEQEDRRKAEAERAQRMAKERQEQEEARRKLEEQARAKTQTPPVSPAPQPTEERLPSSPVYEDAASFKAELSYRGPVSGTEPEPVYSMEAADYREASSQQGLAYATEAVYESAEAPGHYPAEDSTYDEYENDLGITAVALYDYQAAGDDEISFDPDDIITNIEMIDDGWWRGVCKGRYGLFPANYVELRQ
UniProt P62962: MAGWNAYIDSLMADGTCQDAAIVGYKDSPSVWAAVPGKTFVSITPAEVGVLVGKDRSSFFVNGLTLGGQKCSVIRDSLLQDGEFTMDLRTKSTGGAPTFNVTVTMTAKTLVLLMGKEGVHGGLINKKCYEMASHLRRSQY
UniProt P07737: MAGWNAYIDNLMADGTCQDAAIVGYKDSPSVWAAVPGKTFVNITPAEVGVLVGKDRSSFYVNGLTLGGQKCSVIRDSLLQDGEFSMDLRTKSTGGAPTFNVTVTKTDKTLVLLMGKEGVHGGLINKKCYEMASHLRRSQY

Key:
[1] = molecular target: cortactin (human (endogenous in HASM cells)) (UniProt Q14247); assay: co-IP; HASM cells expressing CAS-WT or CAS-SD; ACh 100 uM 5 min or unstimulated; cortactin/Pfn-1 interaction; which protein was precipitated not given
[2] = molecular target: T1, Crk-associated substrate (CAS) (human (endogenous in HASM cells)) (UniProt P56945); assay: co-IP; HASM cells transfected with WT CAS or CAS-SD, or with WT cortactin or NP cortactin; ACh 100 uM 5 min or unstimulated; Pfn-1/CAS protein ratios from blots
T1 sequence: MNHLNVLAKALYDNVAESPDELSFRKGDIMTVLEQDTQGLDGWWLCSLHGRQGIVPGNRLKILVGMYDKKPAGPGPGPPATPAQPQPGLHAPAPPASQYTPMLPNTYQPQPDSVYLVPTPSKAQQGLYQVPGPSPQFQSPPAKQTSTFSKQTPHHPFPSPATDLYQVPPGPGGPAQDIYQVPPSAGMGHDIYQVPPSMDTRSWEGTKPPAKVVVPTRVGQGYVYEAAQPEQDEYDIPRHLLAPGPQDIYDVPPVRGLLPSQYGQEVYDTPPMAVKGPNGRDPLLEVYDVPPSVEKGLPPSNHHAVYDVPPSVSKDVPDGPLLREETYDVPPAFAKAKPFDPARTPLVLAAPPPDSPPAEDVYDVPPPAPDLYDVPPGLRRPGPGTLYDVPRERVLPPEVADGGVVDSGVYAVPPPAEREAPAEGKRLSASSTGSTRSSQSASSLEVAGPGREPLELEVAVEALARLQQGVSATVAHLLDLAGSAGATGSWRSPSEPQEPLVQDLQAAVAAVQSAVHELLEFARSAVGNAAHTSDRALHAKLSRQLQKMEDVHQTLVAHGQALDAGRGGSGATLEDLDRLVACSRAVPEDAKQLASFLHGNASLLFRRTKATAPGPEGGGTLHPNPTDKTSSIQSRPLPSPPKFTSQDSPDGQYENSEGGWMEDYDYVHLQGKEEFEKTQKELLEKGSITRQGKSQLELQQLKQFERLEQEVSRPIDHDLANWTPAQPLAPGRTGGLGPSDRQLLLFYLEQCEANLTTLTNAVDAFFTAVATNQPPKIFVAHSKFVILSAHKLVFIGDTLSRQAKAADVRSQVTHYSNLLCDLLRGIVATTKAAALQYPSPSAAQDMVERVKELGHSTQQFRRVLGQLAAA

[3] = molecular target: T2, WT CAS (wild type Crk-associated substrate) (UniProt P56945); assay: as above
T2 sequence: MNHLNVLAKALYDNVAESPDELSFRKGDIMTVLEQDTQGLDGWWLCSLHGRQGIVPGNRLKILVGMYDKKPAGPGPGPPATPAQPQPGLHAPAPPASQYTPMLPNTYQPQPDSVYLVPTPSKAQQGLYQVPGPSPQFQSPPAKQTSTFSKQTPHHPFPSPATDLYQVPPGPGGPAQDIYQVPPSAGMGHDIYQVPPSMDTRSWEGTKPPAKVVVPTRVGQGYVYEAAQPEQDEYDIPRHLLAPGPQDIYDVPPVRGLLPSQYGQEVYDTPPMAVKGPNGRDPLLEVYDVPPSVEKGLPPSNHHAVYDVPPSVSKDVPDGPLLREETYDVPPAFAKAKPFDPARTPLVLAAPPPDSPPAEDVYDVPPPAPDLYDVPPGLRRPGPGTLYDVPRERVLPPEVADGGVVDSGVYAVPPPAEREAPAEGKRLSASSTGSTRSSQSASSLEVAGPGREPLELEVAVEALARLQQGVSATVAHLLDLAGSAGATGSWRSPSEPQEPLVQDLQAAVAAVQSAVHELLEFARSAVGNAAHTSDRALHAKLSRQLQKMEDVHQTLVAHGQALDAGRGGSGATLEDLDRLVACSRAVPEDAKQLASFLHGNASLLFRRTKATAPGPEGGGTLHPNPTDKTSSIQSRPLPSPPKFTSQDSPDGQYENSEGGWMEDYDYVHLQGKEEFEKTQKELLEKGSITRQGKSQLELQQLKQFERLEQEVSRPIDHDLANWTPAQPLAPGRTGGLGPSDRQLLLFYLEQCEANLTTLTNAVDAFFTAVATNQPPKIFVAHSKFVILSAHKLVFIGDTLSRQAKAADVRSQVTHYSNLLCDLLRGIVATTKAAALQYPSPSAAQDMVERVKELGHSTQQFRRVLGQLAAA

[4] = molecular target: T3, Crk-associated substrate (CAS) (mouse (endogenous in tracheal rings)) (UniProt Q61140); assay: co-IP; extracts of mouse tracheal rings (wild type; c-Abl-lox and c-Abl-smko), untreated or ACh 100 uM 5 min; CAS antibody overnight, protein A-Sepharose 3 h; washed in 50 mM Tris-HCl pH 7.6, 150 mM NaCl, 0.1% Triton X-100; blotted for CAS and Pfn-1
T3 sequence: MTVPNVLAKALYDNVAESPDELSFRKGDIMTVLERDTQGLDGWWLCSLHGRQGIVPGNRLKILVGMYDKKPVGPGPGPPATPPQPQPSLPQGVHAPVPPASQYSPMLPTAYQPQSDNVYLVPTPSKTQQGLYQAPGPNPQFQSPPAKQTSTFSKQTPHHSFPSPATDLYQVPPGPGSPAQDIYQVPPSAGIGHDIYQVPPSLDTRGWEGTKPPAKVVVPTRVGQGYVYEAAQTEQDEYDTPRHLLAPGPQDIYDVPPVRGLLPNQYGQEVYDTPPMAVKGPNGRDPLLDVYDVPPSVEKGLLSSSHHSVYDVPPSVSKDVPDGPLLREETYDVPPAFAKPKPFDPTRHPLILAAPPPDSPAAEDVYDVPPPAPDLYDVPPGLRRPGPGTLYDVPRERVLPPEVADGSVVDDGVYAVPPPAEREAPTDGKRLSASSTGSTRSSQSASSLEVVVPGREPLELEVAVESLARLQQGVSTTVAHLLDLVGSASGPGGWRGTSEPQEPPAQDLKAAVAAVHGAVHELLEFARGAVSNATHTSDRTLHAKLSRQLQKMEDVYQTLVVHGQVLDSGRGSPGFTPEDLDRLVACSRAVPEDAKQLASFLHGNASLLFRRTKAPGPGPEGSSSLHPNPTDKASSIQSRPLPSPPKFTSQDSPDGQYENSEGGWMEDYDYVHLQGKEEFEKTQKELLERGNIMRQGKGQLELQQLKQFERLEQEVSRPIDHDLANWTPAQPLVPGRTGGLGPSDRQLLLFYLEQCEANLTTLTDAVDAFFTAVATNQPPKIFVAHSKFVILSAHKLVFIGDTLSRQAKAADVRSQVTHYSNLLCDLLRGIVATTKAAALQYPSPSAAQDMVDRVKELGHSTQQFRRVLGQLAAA

[5] = molecular target: profilin-1 (Pfn-1) (mouse (endogenous in tracheal rings)) (UniProt P62962); assay: co-IP; competition in tissue: synthetic cell-permeable CAS peptide (2.5 ug/ml, 30 min) added to mouse tracheal rings before ACh and co-immunoprecipitation of Pfn-1 with CAS; only the binder purified

“profilin-1 (Pfn-1) (from UniProt P07737 1-140)” was tested, and the binding [1] was “binds”, the binding [2] was “binds” and the binding [3] was “binds”.

With “profilin-1 (Pfn-1) (from UniProt P62962 1-140)” the binding [4] was “binds”.

B1: cell permeable decoy peptide (CAS) (peptide)
peptide: GRKKRRQRRRPPQPPQPQPSLPQGVHAPVPP
For B1, the binding [5] was “binds”.
